{"source": "patent US11366102B2", "about": "“Spectographic metabolite-signature for identifying a subject's susceptibility to drugs” (Olaris, Inc., priority 2018, dated 2022)", "origin": "cited, not measured here", "test_system": "ER+ breast cancer", "details": "phase 1 study, monotherapy; cited from earlier work", "note": "For at least one compound, name, drawing or mass did not settle the structure.", "data": [{"smiles": "CCN1CCN(Cc2ccc(Nc3ncc(F)c(-c4cc(F)c5nc(C)n(C(C)C)c5c4)n3)nc2)CC1", "note": "[abemaciclib]", "values": [{"measurement": "ER+ patients who experienced clinical benefit", "result": "11 of 36"}]}]}
